The values below come from PubChem BioAssay AID1347426 (Functional Genomics Laboratory (NCATS/FGL), 2020).

Among all 31,000 sequences or so, about 1,400 (4.5%) were called active.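 How the source made its calls: active means median seed-adjusted z-score above 1 or below -1; inactive means the rest.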 The list shows a part of the results.

The test is described as follows: Novel Modifiers of Survival Motor Neuron (SMN) Protein: Gene Identification via Genome-wide siRNA Screen.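 Further: luminescence tracks full-length SMN protein made from the SMN2 reporter.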 The conditions noted are these: HEK293T SMN2-luciferase reporter, siRNA knockdown, 72 h; actives lie on both sides. The method in brief: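 siRNA screen, 10418 genes ×3 siRNAs; 1 pmol/well, lipid reverse transfection into HEK293T SMN2-luc reporter line. 72 h, 37 °C, 5% CO2; ONE-Glo readout. Data: neg-ctrl normalized, log10, MAD; hit = MAD >1.0 or < -1.0.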
As for GGAGUUGCCUGACACUGAATT against PDE4C, the median seed-adjusted z-score is inactive: 0.565.

With CUAAUAGCCUUGGAGAUCATT against RAET1E, the median seed-adjusted z-score was inactive: -0.616.

In the case of CGUGGGCUUUGGCGACUAUTT against KCNK4, the median seed-adjusted z-score was inactive: -0.446.

Regarding AGACAUCCUAUAUUCCUUUTT against CDC14B, the median seed-adjusted z-score is inactive: 0.325.

As for GCCUGAAAAUGUUGACCGATT against MEX3C, the median seed-adjusted z-score was inactive: 0.0977.

For the sequence GGUCAUGAUCAGUUCCAGATT against FMO3, the median seed-adjusted z-score is inactive: -0.0769.

As to GAGCCCAUGCGAAUGCGAATT against MATN4, the median seed-adjusted z-score is inactive: -0.262.

Turning to GCCUCACAGCUAUCGUGAATT against ANXA1, the median seed-adjusted z-score is inactive: -0.114.

GCACAACUGUGGUGGGAUATT against AGPAT6: the median seed-adjusted z-score was inactive: 0.

On to GGAUUCCAAUUAUGUCGUUTT against SI, for which the median seed-adjusted z-score was inactive: 0.

GGAACAUCCUGCACCUGUATT against PC: the median seed-adjusted z-score was inactive: 0.2.

For CAUUGACUCUUGCGACAAUTT against RAB11FIP4, the median seed-adjusted z-score is inactive: 0.249.

Consider CUGUUGGACAAAUAUCUUATT against YWHAB, for which the median seed-adjusted z-score was inactive: 0.579.

As to GAGUCAACAUCGUCUUUAATT against DDX39, the median seed-adjusted z-score was inactive: -0.342.

For the sequence GGAACAAUGACAGCAAACATT against FOXP4, the median seed-adjusted z-score is inactive: 0.588.

Regarding GUGUACUUCAUAUUCGAAATT against PTBP2, the median seed-adjusted z-score is inactive: 0.138.

Take CCCUGGGCAUCAGACCUUATT against TNFRSF8: the median seed-adjusted z-score is inactive: 0.739.

For GGAGGAUCGUUUAGACAGATT against TCF12, the median seed-adjusted z-score is inactive: -0.16.

Regarding GGGACUACUUGGAAUGAUATT against EXOSC6, the median seed-adjusted z-score was inactive: 0.354.

On to GCUGGAAACUAGAAAAGCATT against SERGEF, for which the median seed-adjusted z-score was inactive: -0.308.

Turning to GGUUAUCCUUUAAUCAACATT against ZNF596, the median seed-adjusted z-score is inactive: 0.486.

CGCUGAAACACGUCCAUUUTT against CHAD: the median seed-adjusted z-score is inactive: 0.

For GGCCCAAGAUAACACUGAATT against CASQ1, the median seed-adjusted z-score is inactive: -0.0307.

As to GGUCGAAGCUGUGCAAGGATT against TPPP, the median seed-adjusted z-score was inactive: -0.16.

GGAUUUACUGUGAAUGAAATT against PAAF1: the median seed-adjusted z-score is inactive: -0.422.

As for GACCAAAGCCGAACAGUUUTT against OGDH, the median seed-adjusted z-score is inactive: 0.253.

For GCUUCGAGGAGGGCAAGAATT against PRSS27, the median seed-adjusted z-score is active: 1.03.

GGGUGAUUGCUACACUUUUTT against NEK8: the median seed-adjusted z-score was inactive: -0.099.

For GGACUACUGGUAUGACAUUTT against LMTK3, the median seed-adjusted z-score is inactive: 0.

On to GUGUAGCACUGACCAAGAATT against RCAN3, for which the median seed-adjusted z-score is inactive: 0.544.

Take AGACGACGGCGAUGAGGAATT against RALY: the median seed-adjusted z-score is inactive: 0.

For GAAGCUGAUUGAGCGCAAATT against GCN5L2, the median seed-adjusted z-score was inactive: 0.013.

In the case of GCAGUGUUCUUUGCGCAGATT against PAQR3, the median seed-adjusted z-score is inactive: -0.0384.

With CACUGUUCACUGUGACUAUTT against TAF1, the median seed-adjusted z-score was inactive: -0.582.

For the sequence GGGAGAUCAUCAACACCUATT against XAB2, the median seed-adjusted z-score is inactive: 0.0628.

ACAGCACACCGGACUCUAATT against TMLHE: the median seed-adjusted z-score was inactive: -0.241.

Take CAUGAACGAUGGGCGAGUATT against UXS1: the median seed-adjusted z-score was inactive: 0.25.

As to CGAUCAAGAUUCUAGACGATT against PCDH17, the median seed-adjusted z-score was inactive: 0.451.

On to GGAUUGGAACUGAGACCGATT against SLC25A32, for which the median seed-adjusted z-score was inactive: -0.299.

Take GGCUAAUCGUGAUCUAGUUTT against ACAD10: the median seed-adjusted z-score was inactive: -0.269.

AGACAGUAUAUAUAAUGCATT against MMP26: the median seed-adjusted z-score was inactive: 0.0881.

With GCCUGGAUGCUAAUCAAGATT against S100A12, the median seed-adjusted z-score was inactive: 0.346.

Take GAAUCUGUCCGAAGGAUAATT against DNAJC11: the median seed-adjusted z-score was inactive: 0.148.

Consider CAAACUUUCCUGGUGUUUATT against TMPRSS7, for which the median seed-adjusted z-score is inactive: 0.0269.

Take CGGACAGACCUGUACUUCATT against RERE: the median seed-adjusted z-score is inactive: 0.129.

Consider GGAUGAAAAAUACCGGUGUTT against UGT8, for which the median seed-adjusted z-score was inactive: 0.

On to GAAGUAACUCGAACAGUGATT against ARG1, for which the median seed-adjusted z-score was inactive: -0.108.

For GGAGGUUCAUAUGCAACAATT against CYLC1, the median seed-adjusted z-score was inactive: 0.177.

Consider GCCUCAGAAUUUAAUCAAATT against ALB, for which the median seed-adjusted z-score is inactive: -0.153.

With GCAUCUCGUUCCGAAUUAATT against RYR2, the median seed-adjusted z-score is inactive: -0.354.

For the sequence CAAGAAAAUCAACUCCAUATT against SHOX2, the median seed-adjusted z-score is inactive: -0.238.

For the sequence GGCCUUAGUUGGUAUGGAATT against ADAM28, the median seed-adjusted z-score was inactive: 0.211.

Consider CAUCCAGUGGAAUAAGUGATT against SYNPO2, for which the median seed-adjusted z-score was inactive: 0.

As to GGCAUUCAGUUACUAUGGATT against SV2B, the median seed-adjusted z-score is inactive: -0.43.

For CUGCUAGAAUGGUUGUAAATT against SUCLA2, the median seed-adjusted z-score is inactive: -0.21.

Take GAAGCAAUCUGGGAAGAGATT against MOCS3: the median seed-adjusted z-score was inactive: -0.496.

For the sequence GGCUCUUCAAGGCUAUGAATT against ANXA6, the median seed-adjusted z-score is active: -1.01.

Regarding GGUUGCUCUUGUUACGGAUTT against CLTC, the median seed-adjusted z-score is inactive: -0.0662.

For the sequence GUGGUGACAUUGUAUCAUUTT against IMMP2L, the median seed-adjusted z-score was inactive: 0.919.

In the case of CUGUGAUUGUCACAAGGAATT against IL16, the median seed-adjusted z-score was inactive: -0.471.

In the case of CACUCACACUCCUAGGUGGTT against DUX1, the median seed-adjusted z-score is inactive: -0.62.

With GGACCAACCUCAAACGAGATT against GFI1B, the median seed-adjusted z-score was inactive: 0.154.

As for CAACCUUCACCAAACACUATT against ARL2, the median seed-adjusted z-score was inactive: 0.0301.

CCGCAAUAGUCAACACUAUTT against ZBTB16: the median seed-adjusted z-score was inactive: 0.431.

Take CCGCAAGCUAUGUAACUUATT against AP3B1: the median seed-adjusted z-score was inactive: 0.31.

CAAGGGUAGUGAUAGCGUATT against TGM3: the median seed-adjusted z-score was inactive: 0.257.

UGAGUAUCGGAAAAAGGAATT against GABARAPL1: the median seed-adjusted z-score was inactive: 0.402.

Turning to CCAUAUCACCGACUCCGAATT against HIVEP3, the median seed-adjusted z-score was inactive: 0.516.

In the case of UGACUGCGGAUAUAACUGATT against LMAN2, the median seed-adjusted z-score was inactive: -0.0921.

In the case of CACUUGGAAUCACGGGUUGTT against PPM1B, the median seed-adjusted z-score was inactive: 0.

As for CAAUCUAAAGAGUCAUUCATT against E2F5, the median seed-adjusted z-score was inactive: -0.628.

In the case of GCAAUGUGGUCAAGACGGATT against INHBE, the median seed-adjusted z-score is inactive: 0.172.

For the sequence GCCUUUAUGUCAUCCUCAATT against ZNF626, the median seed-adjusted z-score was inactive: 0.185.

As to GGAGAUACGUUGACGAAUATT against CLK4, the median seed-adjusted z-score is inactive: -0.201.

In the case of GGAAAAACAUUUACUCGAATT against ZNF418, the median seed-adjusted z-score is inactive: 0.804.

GCAACGGGAUUUUGAGUUUTT against ZC3H10: the median seed-adjusted z-score was inactive: -0.79.

For the sequence CCAUAUCCGAUGUAAAAUUTT against PPP2R2D, the median seed-adjusted z-score is inactive: -0.118.

Take CAGCUACCAUAGUUGCUAUTT against PCDH15: the median seed-adjusted z-score is inactive: -0.712.

For GGACAACUAGGGCUGCGAATT against CCR10, the median seed-adjusted z-score was inactive: -0.129.

On to CCAAGUCCCAUACAACAAATT against C1S, for which the median seed-adjusted z-score was inactive: -0.561.

Take ACAGAUCCAUUUUUAGGGATT against PKIG: the median seed-adjusted z-score is inactive: 0.0916.

Take GGAUCAUGUGGUACUUAUUTT against SLC6A19: the median seed-adjusted z-score was inactive: 0.478.

For CUCUUUCAAGUAUGAGACATT against INHA, the median seed-adjusted z-score was inactive: 0.231.

Regarding GGUUCAGCAUAGUCCCAUATT against ENTPD1, the median seed-adjusted z-score was inactive: 0.567.

For the sequence GAAGCACUUCUGUCCCAAUTT against RHOB, the median seed-adjusted z-score is inactive: -0.776.

For the sequence CGAUGGACAGUGUCUCUUATT against ALG6, the median seed-adjusted z-score is inactive: 0.106.

In the case of CCGCCUUUCAAGAACGUAATT against IARS, the median seed-adjusted z-score is inactive: -0.198.

Regarding CGACGAGCACCAUUAGGAATT against EFHB, the median seed-adjusted z-score was inactive: 0.675.

As for GCUUCGGAAUUCAGACAUUTT against NFATC4, the median seed-adjusted z-score was inactive: 0.

CAAAUGGGACUGUCAAUUATT against REPS2: the median seed-adjusted z-score was inactive: 0.454.

On to GCUAAACACUAUUAUUCUATT against LRP2BP, for which the median seed-adjusted z-score is inactive: -0.547.

Consider GACAGACCACAAAAAGGAATT against MICAL1, for which the median seed-adjusted z-score is inactive: 0.31.

As for GCAUCGAAAGGCACAUCAATT against ZDHHC16, the median seed-adjusted z-score was inactive: 0.0194.

CCUCAACUCGUGAAGAAGATT against GPRC5A: the median seed-adjusted z-score was inactive: -0.56.

As for GGAAGGACCUCUAUGCUAATT against ACTA2, the median seed-adjusted z-score is inactive: 0.739.

Regarding GGCUUUGCAUCGGAAAUCATT against BCKDHB, the median seed-adjusted z-score is inactive: 0.366.

Turning to GCUCAUUCCUUCUACAAUUTT against CACNA1G, the median seed-adjusted z-score was inactive: 0.436.

Regarding CGCUGAAAAUUCCUAUGUUTT against AP3D1, the median seed-adjusted z-score was inactive: 0.213.

With GCAGUGCUCGGCAAUUUCATT against SLC2A6, the median seed-adjusted z-score was inactive: 0.616.

On to GGCAAGUAGAUAGUACAUUTT against ZNF507, for which the median seed-adjusted z-score was inactive: -0.262.

Regarding GACGGAUCCUUGACACUUUTT against ARSE, the median seed-adjusted z-score was inactive: 0.705.

Take GCGAAAUUUUGGAUAUCAATT against KIF23: the median seed-adjusted z-score was inactive: -0.449.

CCAUUGAAGAGAACGUAUATT against HAVCR2: the median seed-adjusted z-score was inactive: 0.205.

Turning to GGAAGAGUGGGUUCCAAGATT against SPHK1, the median seed-adjusted z-score is inactive: -0.249.

With AGACUGUUCUAGAUAAAUUTT against FBXO27, the median seed-adjusted z-score is inactive: -0.286.

For the sequence GAACAGCUCACACUACCAATT against MUC5B, the median seed-adjusted z-score was inactive: 0.141.

Consider CAAUUGAGGAUGCUAUAAATT against XDH, for which the median seed-adjusted z-score was inactive: 0.806.

As for CGCUUCUACUACUUCCUAUTT against GPR152, the median seed-adjusted z-score is inactive: -0.9.
